Our source for the binding values is PMC8629386.

Protein sequences, listed by entry. Tags and fused reporters are not part of them. Lines headed by an entry give the natural chain unless they say otherwise; changes in a name come on top.
UniProt Q8I1T8: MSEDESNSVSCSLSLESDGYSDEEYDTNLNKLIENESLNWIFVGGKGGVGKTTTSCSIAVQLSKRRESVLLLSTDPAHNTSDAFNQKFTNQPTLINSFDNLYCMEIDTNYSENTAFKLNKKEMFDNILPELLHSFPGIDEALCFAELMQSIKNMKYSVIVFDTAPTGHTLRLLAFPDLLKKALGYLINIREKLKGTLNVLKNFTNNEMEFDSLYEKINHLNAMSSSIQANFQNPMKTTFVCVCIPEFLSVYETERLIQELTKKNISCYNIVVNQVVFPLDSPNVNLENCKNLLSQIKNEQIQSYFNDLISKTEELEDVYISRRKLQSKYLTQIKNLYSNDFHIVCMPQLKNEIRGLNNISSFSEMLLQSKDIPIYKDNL

These are yes or no findings as the source states them, for the method shown. A result given as binding can be weak or reduced; the word gives no strength. Where a sequence is shown, tags or fusion partners need not be part of it. For some of these results: In cells and extracts the contact can be indirect.

The target of assay [1] is T1, 6×his-PfBOS1 (P. falciparum 3D7) (UniProt Q8IIP9).
T1 sequence: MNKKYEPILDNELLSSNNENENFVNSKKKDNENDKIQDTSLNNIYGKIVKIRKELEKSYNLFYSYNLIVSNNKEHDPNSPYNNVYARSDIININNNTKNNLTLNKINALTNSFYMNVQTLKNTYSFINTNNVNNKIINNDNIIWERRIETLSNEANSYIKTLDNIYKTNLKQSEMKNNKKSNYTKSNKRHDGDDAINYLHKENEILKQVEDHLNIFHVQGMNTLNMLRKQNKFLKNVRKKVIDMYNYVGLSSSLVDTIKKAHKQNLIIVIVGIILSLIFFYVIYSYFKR
Briefly: pull-down; 6×his-tagged TA protein and PfGet3 co-expressed in E. coli Rosetta (DE3) from pCDFDuet-1; soluble crude lysate on Ni^2+-NTA resin, 2 h at 4°C, 50 mM Tris.HCl pH 8, 500 mM NaCl, wash with 40 mM imidazole; western blot with anti-PfGet3 and anti-His.

Assay [2] addresses T2, 6×his-PfUSE1 (P. falciparum 3D7) (UniProt Q8IBY2).
T2 sequence: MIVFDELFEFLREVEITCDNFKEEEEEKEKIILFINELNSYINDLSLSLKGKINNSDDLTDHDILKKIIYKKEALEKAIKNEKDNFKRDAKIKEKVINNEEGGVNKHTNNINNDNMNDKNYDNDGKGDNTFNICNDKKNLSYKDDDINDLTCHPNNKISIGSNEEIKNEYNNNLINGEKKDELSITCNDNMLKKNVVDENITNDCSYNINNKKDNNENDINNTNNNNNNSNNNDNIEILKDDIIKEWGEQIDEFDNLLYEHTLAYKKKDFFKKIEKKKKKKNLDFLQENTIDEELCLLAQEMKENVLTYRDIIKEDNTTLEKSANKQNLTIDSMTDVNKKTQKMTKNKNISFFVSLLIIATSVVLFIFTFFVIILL
Described as above.

Assay [3] concerns the target recombinant PfGet3-6×his (P. falciparum 3D7) (UniProt Q8I1T8). Briefly: pull-down; purified MBP fusion or MBP (2–5 μg) incubated with purified PfGet3-6×his 2 h at 4°C in 50 mM Tris.HCl pH 8.0, 200 mM NaCl, 0.1% NP-40, 20 mM imidazole, 1 mM DTT, 1 mg/ml BSA; captured on Ni^2+-NTA beads; western blot with anti-MBP and anti-PfGet3; both purified.

On to “recombinant PfGet3 co-expressed from pCDFDuet-1 (from UniProt Q8I1T8)”, for which the binding result in assay [1] and in assay [2] was “binds” throughout.

B1: recombinant MBP-PfGet4 (protein, UniProt Q8IL82 1-277)
chain: MKKFKFSKEKLAKEKIENGLHYEAHQLIKSIINRKLQKNQISNCISVIFYFSLKFATAEQYVLLCDLMYQCCLILTQHDIEFNLEYANKIIEIFQKCPPNSTEEKYKFMNKSILWSKSEENVYGYLEFHKVIGYAYFEDKQYSLAHNHFIYLDDNDILYEIICLWRKEAYPSESHFFVLRTILCLLVLDKFDQALNLINMFETNLNRQDVPLPIQLAYLITSSCIYKSLALYEDVKYKYRLILNYDPDFQKYINIIDAAVFNKKKHNLFSMFQNIFA
Consider B1, for which, in assay [3], the binding result was “binds”.

B2: MBP-PfGet2^CD (domain or fragment, UniProt O96235 1-246)
chain: MDKNTLKRRSRLLQKNEARMSMLLGRNLDDEISKEKKESNKNDKHKKNDQHKKNDKSNQNGEDNQNGEDNQNDESNQNDEHKKNDEHKKNDEHNQNDEHNQNDEHNQNDEHNQNDEHNQNDEHNQNDEHNQNDEHNQNDESNQNDKNRKEIPPKEEKDKENNPSVVMENNNNIRKDQDNKTSEHKSSTNIYNKDKNNDYNKLLDKDDNNNNNKNINKNDENDFTSINNDIPNKNKITSQFIITKHE
With B2, the binding result in assay [3] is given as “binds”.
